Values quoted from earlier work as cited in patent publication US5135753A, “Method and therapeutic system for smoking cessation” (Pharmetrix Corporation, priority 1991, dated 1992).

System: skin
Conditions: average penetration rate through the skin; very approximate figures

CN1[C@@H]2C[C@@H](OC(=O)[C@H](CO)c3ccccc3)C[C@H]1[C@@H]1O[C@@H]12 [scopolamine]
skin flux: 2-8 μg/cm^2.h
